The text below walks through data of patent publication US20050053592A1.

In assay [1] the target is T1, Myc-tagged Hpo (Drosophila) (UniProt Q8T0S6).
T1 sequence: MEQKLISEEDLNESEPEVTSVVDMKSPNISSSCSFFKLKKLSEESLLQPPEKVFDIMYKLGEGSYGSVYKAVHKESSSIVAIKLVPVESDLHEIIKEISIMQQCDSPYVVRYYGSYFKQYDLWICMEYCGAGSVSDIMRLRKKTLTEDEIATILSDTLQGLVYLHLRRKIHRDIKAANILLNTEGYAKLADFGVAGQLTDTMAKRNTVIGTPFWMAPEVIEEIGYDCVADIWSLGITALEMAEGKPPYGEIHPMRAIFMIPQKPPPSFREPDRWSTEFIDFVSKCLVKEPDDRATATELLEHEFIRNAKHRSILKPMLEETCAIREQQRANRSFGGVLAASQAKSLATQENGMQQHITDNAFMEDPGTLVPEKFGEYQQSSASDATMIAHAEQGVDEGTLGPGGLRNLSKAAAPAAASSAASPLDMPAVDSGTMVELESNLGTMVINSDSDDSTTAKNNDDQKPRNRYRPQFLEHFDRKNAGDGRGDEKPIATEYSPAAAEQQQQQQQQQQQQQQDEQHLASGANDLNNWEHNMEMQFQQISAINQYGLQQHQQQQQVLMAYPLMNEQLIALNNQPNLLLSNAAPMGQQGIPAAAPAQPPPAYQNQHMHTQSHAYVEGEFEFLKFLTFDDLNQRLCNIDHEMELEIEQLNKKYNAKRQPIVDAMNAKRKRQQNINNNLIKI
As to the kind of experiment: co-immunoprecipitation from S2 cells.

Assay [2] addresses T1, Myc-tagged Hpo (Drosophila). Nature of the assay: co-immunoprecipitation from S2 cells (FIG. 7F legend).
The target of assay [3] is T2, endogenous Hpo protein (Hippo) from S2 cell extracts (Drosophila) (UniProt Q8T0S6).
T2 sequence: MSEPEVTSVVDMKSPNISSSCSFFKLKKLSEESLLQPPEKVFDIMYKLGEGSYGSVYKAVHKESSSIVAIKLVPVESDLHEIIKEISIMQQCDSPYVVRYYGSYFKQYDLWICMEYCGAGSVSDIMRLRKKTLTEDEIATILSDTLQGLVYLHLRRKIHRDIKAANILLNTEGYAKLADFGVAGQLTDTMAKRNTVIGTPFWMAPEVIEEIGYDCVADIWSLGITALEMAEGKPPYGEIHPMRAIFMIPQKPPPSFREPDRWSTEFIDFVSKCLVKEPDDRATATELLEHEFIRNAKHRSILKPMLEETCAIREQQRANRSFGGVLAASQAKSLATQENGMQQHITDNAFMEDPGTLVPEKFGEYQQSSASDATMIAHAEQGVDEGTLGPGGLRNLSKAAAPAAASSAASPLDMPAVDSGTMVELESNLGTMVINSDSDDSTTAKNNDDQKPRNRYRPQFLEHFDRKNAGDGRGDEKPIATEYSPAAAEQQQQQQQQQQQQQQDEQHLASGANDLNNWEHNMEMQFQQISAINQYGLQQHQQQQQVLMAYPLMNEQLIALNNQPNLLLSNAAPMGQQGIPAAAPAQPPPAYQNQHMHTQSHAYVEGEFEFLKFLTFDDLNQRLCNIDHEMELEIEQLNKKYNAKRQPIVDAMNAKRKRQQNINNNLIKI
Nature of the assay: GST pull-down from S2 cell lysates (FIG. 6B legend).

Assay [4] addresses T2, endogenous Hpo protein (Hippo) from S2 cell extracts (Drosophila). Nature of the assay: GST pull-down from S2 cell lysates, blot with anti-Hpo antibody.
The target in assay [5] is T3, C-terminal half of Sav (residue 362-607) (Drosophila) (UniProt Q9VCR6).
T3 sequence (looked up): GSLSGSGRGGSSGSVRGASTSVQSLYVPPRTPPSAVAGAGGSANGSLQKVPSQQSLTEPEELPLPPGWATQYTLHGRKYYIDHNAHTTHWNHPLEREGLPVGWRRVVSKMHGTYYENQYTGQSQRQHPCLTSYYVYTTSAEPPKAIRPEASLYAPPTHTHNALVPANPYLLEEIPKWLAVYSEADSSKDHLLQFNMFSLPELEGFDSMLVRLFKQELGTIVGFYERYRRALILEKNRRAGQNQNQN
Nature of the assay: yeast two-hybrid screen, Hpo bait (FIG. 6A legend).

Assay [6] deals with T3, C-terminal half of Sav (residue 362-607) (Drosophila). As to the kind of experiment: yeast two-hybrid screen (CytoTrap), Hpo C-terminal portion as bait, Drosophila cDNA library.
Assay [7] deals with T4, C-terminal portion of Hpo (residue 474-669), Sav-interacting Hpo clones (Drosophila) (UniProt Q8T0S6).
T4 sequence: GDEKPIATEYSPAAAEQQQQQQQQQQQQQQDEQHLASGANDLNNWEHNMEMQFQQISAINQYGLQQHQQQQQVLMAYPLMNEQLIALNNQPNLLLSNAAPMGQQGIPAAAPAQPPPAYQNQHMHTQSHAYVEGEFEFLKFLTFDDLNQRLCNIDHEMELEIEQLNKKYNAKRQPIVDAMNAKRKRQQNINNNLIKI
Nature of the assay: yeast two-hybrid screen, Sav bait (FIG. 6A legend).

For assay [8], the target named is T4, C-terminal portion of Hpo (residue 474-669), Sav-interacting Hpo clones (Drosophila). Nature of the assay: yeast two-hybrid screen (CytoTrap), Sav C-terminal half as bait, Drosophila cDNA library.

These are yes or no findings as the source states them, for the method shown. For some assays here: Binding seen in cells or lysates may run through a third protein. Some results given as binding are weak or reduced against the parent protein; the word gives no strength. For some assays here: Where a sequence is shown, tags or fusion partners need not be part of it.

B1: Flag-tagged Sav (wild-type) (protein, Drosophila)
chain: MDYKDDDDKNYLTILLCNRKPTMLSRRNKEKSQHKEGVVGKYMKKDTPPDISVINVWSDQRAKKKSLQRCASTSPSCEFHPRSSSTSRNTYSCTDSQPDYYHARRAQSQMPLQQHSHSHPHSLPHPSHPHVRSHPPLPPHQFRASSNQLSQNSSNYVNFEQIERMRRQQSSPLLQTTSSPAPGAGGFQRSYSTTQRQHHPHLGGDSYDADQGLLSASYANMLQLPQRPHSPAHYAVPPQQQQHPQIHQQHASTPFGSTLRFDRAAMSIRERQPRYQPTSSPMQQQQQQQQQQQQQLQHTQLAAHLGGSYSSDSYPIYENPSRVISMRATQSQRSESPIYSNTTASSATLAVVPQHHHQGHLAVPSGSGGGSLSGSGRGGSSGSVRGASTSVQSLYVPPRTPPSAVAGAGGSANGSLQKVPSQQSLTEPEELPLPPGWATQYTLHGRKYYIDHNAHTTHWNHPLEREGLPVGWRRVVSKMHGTYYENQYTGQSQRQHPCLTSYYVYTTSAEPPKAIRPEASLYAPPTHTHNALVPANPYLLEEIPKWLAVYSEADSSKDHLLQFNMFSLPELEGFDSMLVRLFKQELGTIVGFYERYRRALILEKNRRAGQNQNQN
In the case of B1, the binding result in assay [1] and in assay [2] was “binds” in each case.

B2: GST fusion protein containing full-length Sav (protein, UniProt Q9VCR6 1-608, looked up, not shown: a dimerising Fc or GST)
chain: MNYLTILLCNRKPTMLSRRNKEKSQHKEGVVGKYMKKDTPPDISVINVWSDQRAKKKSLQRCASTSPSCEFHPRSSSTSRNTYSCTDSQPDYYHARRAQSQMPLQQHSHSHPHSLPHPSHPHVRSHPPLPPHQFRASSNQLSQNSSNYVNFEQIERMRRQQSSPLLQTTSSPAPGAGGFQRSYSTTQRQHHPHLGGDSYDADQGLLSASYANMLQLPQRPHSPAHYAVPPQQQQHPQIHQQHASTPFGSTLRFDRAAMSIRERQPRYQPTSSPMQQQQQQQQQQQQQLQHTQLAAHLGGSYSSDSYPIYENPSRVISMRATQSQRSESPIYSNTTASSATLAVVPQHHHQGHLAVPSGSGGGSLSGSGRGGSSGSVRGASTSVQSLYVPPRTPPSAVAGAGGSANGSLQKVPSQQSLTEPEELPLPPGWATQYTLHGRKYYIDHNAHTTHWNHPLEREGLPVGWRRVVSKMHGTYYENQYTGQSQRQHPCLTSYYVYTTSAEPPKAIRPEASLYAPPTHTHNALVPANPYLLEEIPKWLAVYSEADSSKDHLLQFNMFSLPELEGFDSMLVRLFKQELGTIVGFYERYRRALILEKNRRAGQNQNQNQ
As for B2, the binding result in assay [3] and in assay [4] was “binds” in each case.

B3: non-catalytic C-terminal portion of Hpo (yeast two-hybrid bait) (protein)
chain: ANRSFGGVLAASQAKSLATQENGMQQHITDNAFMEDPGTLVPEKFGEYQQSSASDATMIAHAEQGVDEGTLGPGGLRNLSKAAAPAAASSAASPLDMPAVDSGTMVELESNLGTMVINSDSDDSTTAKNNDDQKPRNRYRPQFLEHFDRKNAGDGRGDEKPIATEYSPAAAEQQQQQQQQQQQQQQDEQHLASGANDLNNWEHNMEMQFQQISAINQYGLQQHQQQQQVLMAYPLMNEQLIALNNQPNLLLSNAAPMGQQGIPAAAPAQPPPAYQNQHMHTQSHAYVEGEFEFLKFLTFDDLNQRLCNIDHEMELEIEQLNKKYNAKRQPIVDAMNAKRKRQQNINNNLIKI
In the case of B3, the binding entry in assay [5] and in assay [6] was “binds” throughout.

B4: C-terminal half of Sav (residue 362-607) (protein, Drosophila, UniProt Q9VCR6 362-607, looked up)
chain: T3 sequence (looked up)
As for B4, the binding result in assay [7] and in assay [8] was “binds” in each case.
